# In PMC12370185:
# The list shows a part of the results. At the low end of the ranking the order means little.
# Test system: OCT4 + histone octamer
# Test: Pioneer-seq (competitive nucleosome EMSA with sequencing)
# Conditions: 10 mM Tris-Cl pH 7.5, 50 mM NaCl, 1 mM DTT, 0.25 mg/ml BSA, 2 mM MgCl2, 0.025% Nonidet P-40, 5% glycerol; 28 nM nucleosome library; 10 min on ice then 30 min …; high values mean tight binding; double strand, one strand shown
row,Sequence,binding signal (log2 relative supershift)
1,GATGGACCCTATACGCGGCTTGAAAGCCAAACTCTTAGATGTTGTGCATGTCGAAACTGGAACAAAGATTATAATGCAAGTTCAATTTTCCTCAAATATGGATCTCAACATTAATTGTGGTATGCAGCTCACCCACAGCCTTGGGTGTGGTCTATGAATGCAGCTGCTACTCTGTTCTACAATTATTGTATTTTATTGCCATTATGACTGTGCCAGTCGGATAGTGTTCC,-0.389
2,GATGGACCCTATACGCGGCACACAAACTCTTTCCCCCTTGTCCGTTTGCAGGCTCTCTCATCTGGCACCTATAGTGACACCTGCTCCTTTGAGTGGCCCCTTGCCCAGGACACAGCTGTGTTCCTTCATGGCATCATTTGTGTGCTGGCTCAGGCCAGCCTATGGTCCCTGCTCCCCAAGCCTCTCACTGAAGAGAAAGGCACTGAAAGGTGCCAGTCGGATAGTGTTCC,-0.626
3,GATGGACCCTATACGCGGCATTATGTACACAGTCTCATGGACAAAGGCATTTGTCAAGTCTCTATGATATTTCTAGAAATACCTTACAGGGCATTATGACTATACAAAGTCAGGGTAGGGCAGCAGAATGCCTGTCTTCAAGACTCTCCATCCCAATGCTCAGGACTTGTTATGCTACTCAGACCAGCATCTTTTGCACAAAGTATTTGTTGCCAGTCGGATAGTGTTCC,-0.161
4,GATGGACCCTATACGCGGCTTAATTCCTCCACTCTTGCAAGTGTACTTAATAGCTCACACAAAGCAAGAAGCATAACCGCAAGAACACAGAGAAGCCTGCCCTGCCAGGTTTATTGTGTGCCTGGCTGCGTGATTATTGTTTTGCATATAACCTCACAGAGGAAATCCTGTGTCAGGCACTTCCAGAGCCTCATGTAGTTTTACTGGATGTGCCAGTCGGATAGTGTTCC,-0.329
5,GATGGACCCTATACGCGGCTATAGAGATTGAATGGAAGAGTGCCTTGGAAAGTGTCTCTACCAAATGGCACCTGAGCTGAATGTTGTAGAATAAGAGCTGTTCATCAGGATGACAATGGGAGGGGAGGAGGCTGAGATAAAGGCATTTCAAATGGAGGGAATAGCAAAGATGTGGAAGCATGGCCTGTCATTAAACTGCAAGTAGTTCAGTGCCAGTCGGATAGTGTTCC,-0.964
6,GATGGACCCTATACGCGGCGATAATTTGGATTTAGGGTAAGGGACAGCGTTGCTCATCTACAGGACCACAAGGGGTTCTGTGCTGCAGGGGCATAAGAAGGAGCATGTGCCATGTGGGGAATGCAGGGAAGCAGGGCAGAGGGACGTAGGAGAGGAAGATTAAGAGCCAAGGGGGAGGGGCAGGCAGGCAGGTCCTTTTCCATCTTTTCATGCCAGTCGGATAGTGTTCC,-0.669
7,GATGGACCCTATACGCGGCTCATGGAATCCTTCATTAGCTCCATTTCTTAGCAGAAAAGGTTGTGCAGCATATGCCATATCATACTGGATATGCCCCATCTCATGATGAGCTGTCAGGAAGTCGTCCATTGTCACCTTTGTGCACATAAGGATCCTGCATGAAAATGGACAAGATGAAAATGAATCTCACTGACTTTCATTTAACCATTATGCCAGTCGGATAGTGTTCC,-0.0276
8,GATGGACCCTATACGCGGCCAATAAGGGTGGTCTGGTGCCTTGCTCCAAAAGGCCTTATCAGTAGACCTGAGACGATGGGCTGGGTTGTCTTCATTAACCTCTGAAAGCATGCCTGGGGAAGAAGGGACCAGCCTGGGCTCCGAAGGCCTCCTCAGAACAAGACCCTGCTTGTCCAAGTGCCTCACTCCCGGGTGGCTTGATTTCCAGGATGCCAGTCGGATAGTGTTCC,-0.325
9,GATGGACCCTATACGCGGCAGGGAGGTGTTTGGGGTTTGGACAGCTGCTCCCTCCTTTAGGGCTGACTGTCCCATCAGGAGGGGGTTGTTTCTGTTGCTCAGTGGGGAATCTGCAGGCCTCGACAGGCTCTGAGCTGGGAAACAGGAGTGGCCCTGCCTGTCCTATGACACACTGTGAGTGGAGGGGGCTGTGGCCGGCAGGGACGTAGGTGCCAGTCGGATAGTGTTCC,-0.642
10,GATGGACCCTATACGCGGCGCTTGAACTCTGAACCTGGTGGGTTGGTTAAGCCAACAAGGGGAAGGAGTCAGTGGAAGTGGGGTTGGGAAAGGGGGCCTCCATGTGTCTGCACCTGCCTGACACTACCTGCCCCATACCACACCCTCCTGACACTGCCCACCCCTACCCCACCCTCCTGACACTGCCTACCCAATACCCCACCCTCCTGTTGCCAGTCGGATAGTGTTCC,-0.768
11,GATGGACCCTATACGCGGCTGCTGGAATGTTCCTGTATTGCCTGCTTTAGCATGTGTGTTGGCAGGGTGTAGATACATACACCCCCACAACGACCCTCCTCCCACCCTATGTAAATGTACTCACTCTACAGCATTGTAAAGGATTTCATTGTGCCATTTTGTTTTCAGAATCATCTTTCACTCTTTTGTGAGTATAATGATAGTAGCTGTTGCCAGTCGGATAGTGTTCC,-0.523

# Two entries drawn at random from those above, as already listed:
row,Sequence,binding signal (log2 relative supershift)
7,GATGGACCCTATACGCGGCTCATGGAATCCTTCATTAGCTCCATTTCTTAGCAGAAAAGGTTGTGCAGCATATGCCATATCATACTGGATATGCCCCATCTCATGATGAGCTGTCAGGAAGTCGTCCATTGTCACCTTTGTGCACATAAGGATCCTGCATGAAAATGGACAAGATGAAAATGAATCTCACTGACTTTCATTTAACCATTATGCCAGTCGGATAGTGTTCC,-0.0276
2,GATGGACCCTATACGCGGCACACAAACTCTTTCCCCCTTGTCCGTTTGCAGGCTCTCTCATCTGGCACCTATAGTGACACCTGCTCCTTTGAGTGGCCCCTTGCCCAGGACACAGCTGTGTTCCTTCATGGCATCATTTGTGTGCTGGCTCAGGCCAGCCTATGGTCCCTGCTCCCCAAGCCTCTCACTGAAGAGAAAGGCACTGAAAGGTGCCAGTCGGATAGTGTTCC,-0.626
